For the assay, the target named is T1, C-terminal domain of IpaH1.4 (IpaH-CTD), N-terminally his6-tagged, produced in CFPS (S. flexneri 2a), A0A0H2.
T1 chain: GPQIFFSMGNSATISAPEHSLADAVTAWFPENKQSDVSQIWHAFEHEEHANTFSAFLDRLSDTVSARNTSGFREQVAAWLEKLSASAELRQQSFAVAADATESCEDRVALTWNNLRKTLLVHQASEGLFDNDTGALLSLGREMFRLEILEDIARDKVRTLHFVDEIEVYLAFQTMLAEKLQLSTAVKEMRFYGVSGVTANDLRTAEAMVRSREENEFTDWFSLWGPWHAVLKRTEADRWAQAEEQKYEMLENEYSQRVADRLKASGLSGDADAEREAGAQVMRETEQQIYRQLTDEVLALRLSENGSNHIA
Nature of the assay: SEC-MALS; Superdex75 10/30 GL, 50 mM Tris pH 8, 150 mM NaCl, 0.5 mL/min, column 25 °C, about 50-100 μg injected; both purified. The note with it: remark: other sources report otherwise. On the technique in general: SEC sorts molecules by how far they enter the pores of the column.

These are yes or no findings as the source states them, for the method shown. Where a sequence is shown, tags or fusion partners need not be part of it.

B1: C-terminal domain of IpaH1.4 (IpaH-CTD), N-terminally his6-tagged, produced in CFPS, A0A0H2USG1 265-575 (domain or fragment)
chain: T1 chain
Turning to B1, the binding result was “no binding”.

The values are drawn from PMC8688910.
